This is an account of results in PubChem BioAssay AID256 (DTP/NCI, 2004).

Each structure is given as a SMILES string. The list shows only some results of the screen, not a fair sample: it is rich in T/C values a quarter to a half above the control, in often repeated tests (any T/C) and in doses without a T/C. Further doses and runs are listed elsewhere. T/C: endpoint of the treated group in % of that of the vehicle group. Some entries give survivors of the animals treated and no T/C: the source files T/C as zero there, which appears to mark a toxic dose or a test without result, not a measured value. Some doses without a T/C left all or most animals alive at the check, yet need not have been tolerated: the source hardly ever lists a survival T/C far under the control, and the zero likely stands for such cases as well. Counts of survivors are from the toxicity check (mostly the fifth day) where no day follows; animals may have died later. Schedules are NCI's codes, taken here to give the interval after Q, in days (D) or hours (H), and the number of doses after X. Some entries were tested several times; the values are given in rising order. Where survival is the endpoint, this PubChem deposit counts one and a half times the control or more as active, and values a quarter to a half above the control carry no call in these data; other NCI protocols may use other cut-offs. Some T/C values carry the count of animals alive at the toxicity check (mostly the fifth day); where none is given, no animal had died by that day.

In this experiment the test system is CD2F1 mice, L1210 leukemia ip, survival T/C. Put plainly: NCI In Vivo Anticancer Drug Screen. Data for tumor model L1210 Leukemia (intraperitoneal) in CD2F1 (CDF1) mice. Conditions: higher T/C = longer survival. A digest of the protocol:
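Each value reflects a quotient of treated over vehicle control outcomes in mice with a transplanted tumor.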

The mark [1] stands for this setting: T/C endpoint: mean survival time, dose: 400.0 mg/kg/injection, schedule: Q04DX003 (ip), vehicle: saline with Tween-80.
Setting [2] is: T/C endpoint: mean survival time, dose: 400.0 mg/kg/injection, schedule: Q01DX001 (ip), vehicle: saline.
[3] abbreviates: T/C endpoint: mean survival time, dose: 200.0 mg/kg/injection, schedule: Q04DX003 (ip), vehicle: saline with Tween-80.
The mark [4] stands for this setting: T/C endpoint: mean survival time, dose: 200.0 mg/kg/injection, schedule: Q01DX009 (ip), vehicle: saline with Tween-80.
[5] abbreviates: T/C endpoint: mean survival time, dose: 50.0 mg/kg/injection, schedule: Q01DX009 (ip), vehicle: saline with Tween-80.
Where [6] appears, read: T/C endpoint: mean survival time, dose: 100.0 mg/kg/injection, schedule: Q01DX009 (ip), vehicle: saline with Tween-80.
[7] abbreviates: T/C endpoint: mean survival time, dose: 400.0 mg/kg/injection, schedule: Q04DX002 (ip), vehicle: saline with Tween-80.
The mark [8] stands for this setting: T/C endpoint: mean survival time, dose: 200.0 mg/kg/injection, schedule: Q04DX002 (ip), vehicle: saline with Tween-80.

On to `c1ccc([P+](C[P+](c2ccccc2)(c2ccccc2)c2ccccc2)(c2ccccc2)c2ccccc2)cc1`, for which the survivor count is, setting by setting: (T/C endpoint: mean survival time, dose: 100.0 mg/kg/injection, schedule: Q04DX003 (ip), vehicle: other) 0 of 6; (T/C endpoint: mean survival time, dose: 200.0 mg/kg/injection, schedule: Q04DX003 (ip), vehicle: other) 0 of 6; (T/C endpoint: mean survival time, dose: 400.0 mg/kg/injection, schedule: Q04DX003 (ip), vehicle: other) 0 of 6.
As for `C=CCOC(=O)CCCCCCCCC(=O)OCC=C`, the survivor count (T/C endpoint: mean survival time, dose: 400.0 mg/kg/injection, schedule: Q01DX009 (ip), vehicle: saline with Tween-80) is 0 of 6 and the survivor count under setting [1] is recorded as 6 of 6.
`CCOc1ccc(NC2OC(CO)C(O)C(O)C2O)cc1` (stereo not given): under setting [2], the survivor count is listed as 0 of 4.
For `N#CSCc1ccccc1Cl`, for the setting “T/C endpoint: mean survival time, dose: 20.0 mg/kg/injection, schedule: Q04DX003 (ip), vehicle: saline with Tween-80”, the survivor count was 5 of 6.
As for `CN(C)Cc1ccc2ccccc2c1`, the survivor count (T/C endpoint: mean survival time, dose: 200.0 mg/kg/injection, schedule: Q01DX001 (ip), vehicle: saline) is 1 of 6 and the survivor count under setting [2] is reported as 0 of 6.
With `Cc1ccc(C(C)C)c(OCCCBr)c1`, the survivor count by setting is: under setting [3], 6 of 6; under setting [1], 2 of 6.
For `OCc1ccc[n+](CCc2c[nH]c3ccccc23)c1`, the survivor count under setting [4] is on record as 1 of 6.
Consider `Cc1ccccc1CC(C)c1ccccc1` (stereo not given), for which the survivor count under setting [1] is 4 of 6.
Turning to `CCSC(C)CC(=O)O` (stereo not given), under setting [2], the survivor count is 0 of 6.
Turning to `CC(=O)OCC1OC(n2cnc3c(NC(=O)c4ccccc4)ncnc32)C(OC(C)=O)C1OC(C)=O` (stereo not given), for the setting “T/C endpoint: mean survival time, dose: 200.0 mg/kg/injection, schedule: Q01DX005 (ip), vehicle: distilled water + Tween-80”, the survivor count is 3 of 6.
`O=S(=O)(F)/C=C/c1ccccc1`: the survivor count under setting [1] is reported as 3 of 6.
On to `Brc1ccc(-c2csc(Nc3nc(-c4ccc(Br)cc4)cs3)n2)cc1`, for which the survivor count by setting is: (T/C endpoint: mean survival time, dose: 100.0 mg/kg/injection, schedule: Q04DX003 (ip), vehicle: saline with Tween-80) 6 of 6; under setting [3], 6 of 6.
As to `Cc1ccc(Cl)cc1NC(=S)NC(=O)COc1ccccc1`, the T/C under setting [5] was 89 and 94 % of control. For the same compound, the survivor count is 1 of 3 and 5 of 6 under setting [5]; 2 of 3 and 4 of 6 under setting [6]; 2 of 6 and 2 of 3 under setting [4]; 6 of 6 under setting [3]; 0 of 3 under setting [7].
Turning to `C=CCNC(=O)c1ccc[n+](CC(=O)NCCCCCCCCCC)c1`, the survivor count by setting is: (T/C endpoint: mean survival time, dose: 100.0 mg/kg/injection, schedule: Q04DX003 (ip), vehicle: saline) 0 of 6; (T/C endpoint: mean survival time, dose: 200.0 mg/kg/injection, schedule: Q04DX003 (ip), vehicle: saline) 0 of 6; (T/C endpoint: mean survival time, dose: 400.0 mg/kg/injection, schedule: Q04DX003 (ip), vehicle: saline) 0 of 6.
In the case of `CC[P+](C)(CC)c1cccc(OC(=O)NC)c1`, the survivor count is on record as 1 of 6 (T/C endpoint: mean survival time, dose: 0.4 mg/kg/injection, schedule: Q01DX001 (ip), vehicle: saline) and 0 of 6 (T/C endpoint: mean survival time, dose: 0.8 mg/kg/injection, schedule: Q01DX001 (ip), vehicle: saline).
`CCNCC(=O)O[C@]1(CC)C(=O)OCc2c1cc1n(c2=O)Cc2cc3ccccc3nc2-1`: the T/C (T/C endpoint: median survival time, dose: 15.0 mg/kg/injection, schedule: Q04DX002 (ip), vehicle: saline) is 127 % of control. For the setting “T/C endpoint: median survival time, dose: 60.0 mg/kg/injection, schedule: Q04HX004 (iv), vehicle: dextrose”, the survivor count is reported as 0 of 6.
Take `CCCCCC(O)C1C(=O)OC(C)C(O)/C=C/C=C/C=C/C=C\C=C(\C)C(O)CC(O)CC(O)CC(O)CC(O)CC(O)CC1O` (stereo not given): the survivor count (T/C endpoint: median survival time, dose: 50.0 mg/kg/injection, schedule: Q01DX009 (ip), vehicle: distilled water + alcohol) is 3 of 6.
With `Cc1ccc(S(=O)(=O)C[n+]2ccccc2N)cc1`, the survivor count is on record as 3 of 3 under setting [8] and 0 of 3 under setting [7].
Turning to `COc1cccc2c1C(=O)c1c(O)c3c(c(O)c1C2=O)C[C@@](O)(/C(C)=N/NC(=O)c1ccc(Cl)cc1)C[C@@H]3OC1CC(N)C(O)C(C)O1` (stereo not given in full), the T/C (T/C endpoint: mean survival time, dose: 1.0 mg/kg/injection, schedule: Q01DX009 (ip), vehicle: saline) is 134 % of control; the T/C (T/C endpoint: mean survival time, dose: 4.0 mg/kg/injection, schedule: Q01DX009 (ip), vehicle: saline) was 146 % of control; the T/C (T/C endpoint: mean survival time, dose: 4.0 mg/kg/injection, schedule: Q01DX009 (ip), vehicle: suspension in saline) was 133 % of control; the T/C (T/C endpoint: mean survival time, dose: 8.0 mg/kg/injection, schedule: Q01DX009 (ip), vehicle: saline) was 138 % of control; the T/C (T/C endpoint: mean survival time, dose: 8.0 mg/kg/injection, schedule: Q01DX009 (ip), vehicle: suspension in saline) was 127 % of control; the T/C (T/C endpoint: mean survival time, dose: 16.0 mg/kg/injection, schedule: Q01DX009 (ip), vehicle: suspension in saline) was 147 % of control.
With `C[C@@](O)(/C=C/[C@H]1CC=CC(=O)O1)[C@@H](C[C@@H](O)\C=C/C=C\C=C\CO)OP(=O)(O)O`, the T/C was 128 % of control (T/C endpoint: median survival time, dose: 0.78 mg/kg/injection, schedule: Q01DX009 (ip), vehicle: other); 140 % of control (T/C endpoint: median survival time, dose: 0.78 mg/kg/injection, schedule: Q01DX009 (ip), vehicle: saline); 137 % of control (T/C endpoint: median survival time, dose: 1.56 mg/kg/injection, schedule: Q01DX009 (ip), vehicle: other); 128 % of control (T/C endpoint: median survival time, dose: 3.12 mg/kg/injection, schedule: Q01DX005 (iv), vehicle: saline); 145 % of control (T/C endpoint: median survival time, dose: 6.25 mg/kg/injection, schedule: Q01DX005 (iv), vehicle: saline); 146 % of control (T/C endpoint: median survival time, dose: 12.5 mg/kg/injection, schedule: Q01DX009 (ip), vehicle: other). Moreover, where the note is “T/C endpoint: median survival time, dose: 25.0 mg/kg/injection, schedule: Q01DX009 (ip), vehicle: saline”, the T/C is 132 % of control [5 of 6 alive]. The survivor count is 1 of 6 and 4 of 6 (T/C endpoint: median survival time, dose: 25.0 mg/kg/injection, schedule: Q01DX009 (ip), vehicle: other); 0 of 6 and 3 of 6 (T/C endpoint: median survival time, dose: 50.0 mg/kg/injection, schedule: Q01DX009 (ip), vehicle: other).
Take `CN=NC(C)C`: the T/C was 133 % of control (T/C endpoint: mean survival time, dose: 25.0 mg/kg/injection, schedule: Q01DX009 (ip), vehicle: saline with Tween-80); 141 % of control under setting [5]; 138 % of control under setting [6].
Consider `c1cn[nH]c1`, for which the T/C reads like this: (T/C endpoint: median survival time, dose: 100.0 mg/kg/injection, schedule: Q01DX009 (ip), vehicle: saline + alcohol) 126 % of control; (T/C endpoint: median survival time, dose: 100.0 mg/kg/injection, schedule: Q01DX009 (ip), vehicle: saline) 132 % of control.
Consider `COc1ccc(NC(=O)Oc2ccc(SC)c(C)c2)cc1`, for which, under setting [8], the survivor count was 3 of 3.
